Results are given in words; binding and its absence hold for the method and conditions named. For some assays here: Binding seen in cells or lysates may run through a third protein. Some binding calls cover weakened binding; strength is not graded here.

The chains behind the UniProt entries cited, without tags or fusion partners. Residues count along the entry.
UniProt P14625, residues 22-803: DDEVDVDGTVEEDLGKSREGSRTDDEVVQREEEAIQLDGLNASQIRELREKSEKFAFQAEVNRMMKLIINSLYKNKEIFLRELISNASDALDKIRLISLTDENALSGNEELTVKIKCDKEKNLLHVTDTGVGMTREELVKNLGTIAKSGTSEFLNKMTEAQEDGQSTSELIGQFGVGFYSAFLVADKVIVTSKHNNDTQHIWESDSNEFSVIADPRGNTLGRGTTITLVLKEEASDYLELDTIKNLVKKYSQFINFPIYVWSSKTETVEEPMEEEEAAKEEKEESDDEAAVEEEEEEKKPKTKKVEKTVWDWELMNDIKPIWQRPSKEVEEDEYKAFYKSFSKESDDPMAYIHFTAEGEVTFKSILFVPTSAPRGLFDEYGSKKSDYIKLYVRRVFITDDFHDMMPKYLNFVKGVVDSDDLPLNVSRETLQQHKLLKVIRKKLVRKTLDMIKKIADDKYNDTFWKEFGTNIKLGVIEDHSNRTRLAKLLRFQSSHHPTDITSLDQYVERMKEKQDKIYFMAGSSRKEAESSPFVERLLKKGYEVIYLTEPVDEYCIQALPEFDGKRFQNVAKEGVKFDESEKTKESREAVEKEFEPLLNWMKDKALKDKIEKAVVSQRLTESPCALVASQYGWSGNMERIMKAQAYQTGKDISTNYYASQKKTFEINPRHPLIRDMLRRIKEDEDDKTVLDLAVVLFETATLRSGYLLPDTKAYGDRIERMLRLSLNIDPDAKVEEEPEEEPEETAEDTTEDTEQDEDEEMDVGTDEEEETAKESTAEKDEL

In assay [1] the target is gp96 inhibitory peptide p37, biotin conjugated. Description: ELISA; biotinylated peptides on 96-well streptavidin plates; purified gp96 at 0 to 20 μg/ml added in 20 mM HEPES (pH 7.2), 20 mM NaCl, 2 mM MgCl2, 100 mM KCl for 1.5 h; detected with anti-gp96 antibody and HRP-conjugated secondary antibody, TMB, 450 nm; both purified. For orientation: ELISA stands for enzyme-linked immunosorbent assay.

For assay [2], the target named is HER2, endogenous in SK-BR-3 cells (human (endogenous in SK-BR-3)) (UniProt P04626). Description: co-IP; total lysate of SK-BR-3 cells precipitated with anti-HER2 antibody and Protein G Sepharose, Western blot; cells treated with 20 μg/ml of p37 or control peptide for 30 min; for HER1 and HER3, cells pre-treated with EGF (50 ng/ml) or β-heregulin (100 ng/ml) for 15 min.

As for “heat shock protein gp96, purified (from UniProt P14625 22-803)”, the binding result in assay [1] was “binds”.

In the case of “gp96, endogenous in SK-BR-3 cells (from UniProt P14625 22-803)”, the binding entry in assay [2] is reported as “binds”.

The values above are taken from article PMC4405268.
